Source: PubChem BioAssay AID256 (DTP/NCI, 2004)
The list is a part of this screen's results and no random one: it is rich in T/C values a quarter to a half above the control, in often repeated tests (any T/C) and in doses without a T/C. Further doses and runs are listed elsewhere. T/C: endpoint of the treated group in % of that of the vehicle group. Some entries give survivors of the animals treated and no T/C: the source holds a T/C of zero for them, seemingly a mark for toxic or unscored doses. Some survivor counts are full or nearly so, which does not show that the dose was tolerated: the source hardly ever lists a survival T/C far under the control, and the zero likely stands for such cases as well. Counts of survivors are from the toxicity check (mostly the fifth day) where no day follows; animals may have died later. Schedules are NCI's codes, taken here to give the interval after Q, in days (D) or hours (H), and the number of doses after X. For survival time, this PubChem deposit counts one and a half times the control or more as active, and values a quarter to a half above the control carry no call in these data; other NCI protocols may use other cut-offs. Marks such as (2×) count equal records among those shown. Some entries hold several experiments; the values are given in rising order. Some T/C values are followed by the survivors on the day toxicity was checked, most often the fifth; where none is given, no animal had died by that day.

Test system: CD2F1 mice, L1210 leukemia ip, survival T/C
Assay: NCI In Vivo Anticancer Drug Screen. Data for tumor model L1210 Leukemia (intraperitoneal) in CD2F1 (CDF1) mice
Details: higher T/C = longer survival
In short: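 Compound-dosed mice with transplantable tumor versus matched vehicle controls; endpoint ratio T/C reported.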

[1] = T/C endpoint: mean survival time, dose: 200.0 mg/kg/injection, schedule: Q04DX003 (ip), vehicle: saline
[2] = T/C endpoint: mean survival time, dose: 400.0 mg/kg/injection, schedule: Q04DX003 (ip), vehicle: saline
[3] = T/C endpoint: mean survival time, dose: 400.0 mg/kg/injection, schedule: Q04DX002 (ip), vehicle: saline
[4] = T/C endpoint: mean survival time, dose: 400.0 mg/kg/injection, schedule: Q01DX001 (ip), vehicle: saline with Tween-80
[5] = T/C endpoint: mean survival time, dose: 100.0 mg/kg/injection, schedule: Q01DX009 (ip), vehicle: saline with Tween-80
[6] = T/C endpoint: mean survival time, dose: 200.0 mg/kg/injection, schedule: Q01DX001 (ip), vehicle: saline with Tween-80
[7] = T/C endpoint: mean survival time, dose: 200.0 mg/kg/injection, schedule: Q01DX009 (ip), vehicle: saline with Tween-80
[8] = T/C endpoint: mean survival time, dose: 400.0 mg/kg/injection, schedule: Q04DX003 (ip), vehicle: saline with Tween-80

Question: With O=S(=O)(/C=C/S(=O)(=O)c1ccccc1)c1ccccc1 as the compound, how does the survivor count (T/C endpoint: mean survival time, dose: 250.0 mg/kg/injection, schedule: Q01DX009 (ip), vehicle: Klucel (hydroxypropylcellulose) (HPC)) read?
Answer: 3 of 6

Question: CN(C)CCN1C(=O)c2cccc3cc([N+](=O)[O-])cc(c23)C1=O was tested. Which T/C (T/C endpoint: mean survival time, dose: 3.0 mg/kg/injection, schedule: Q01DX009 (ip), vehicle: saline with Tween-80) did it give?
Answer: 128 % of control

Question: What about the survivor count (T/C endpoint: mean survival time, dose: 12.0 mg/kg/injection, schedule: Q01DX009 (ip), vehicle: saline with Tween-80) of the same compound?
Answer: 6 of 6

Question: What about the survivor count (T/C endpoint: mean survival time, dose: 24.0 mg/kg/injection, schedule: Q01DX009 (ip), vehicle: saline with Tween-80) of the same compound?
Answer: 6 of 6

Question: And the survivor count (T/C endpoint: mean survival time, dose: 24.0 mg/kg/injection, schedule: Q01DX009 (ip), vehicle: saline)?
Answer: 6 of 6

Question: And the T/C (T/C endpoint: median survival time, dose: 6.0 mg/kg/injection, schedule: Q01DX009 (ip), vehicle: saline with Tween-80)?
Answer: 128 % of control

Question: What about the T/C (T/C endpoint: median survival time, dose: 12.0 mg/kg/injection, schedule: Q01DX009 (ip), vehicle: saline with Tween-80) of the same compound?
Answer: 132 % of control

Question: What does the source list for CCN(CC)C(=O)N1C2CCC1CN(C)C2?
Answer: survivor count (T/C endpoint: mean survival time, dose: 100.0 mg/kg/injection, schedule: Q04DX003 (ip), vehicle: saline): 2 of 6; survivor count [1]: 0 of 6; survivor count [2]: 0 of 6

Question: For Nc1nc(=O)[nH]c(N)c1N, which survivor count [3] is on record?
Answer: 1 of 3

Question: For COc1cccc2c1C(=O)c1c(O)c3c(c(O)c1C2=O)CC(O)(/C(C)=N/NC(=O)CCCCC(=O)N/N=C(\C)C1(O)Cc2c(O)c4c(c(O)c2C(OC2CC(N)C(O)C(C)O2)C1)C(=O)c1c(OC)cccc1C4=O)CC3OC1CC(N)C(O)C(C)O1 (stereo unspecified), which T/C (T/C endpoint: median survival time, dose: 1.5 mg/kg/injection, schedule: Q01DX009 (ip), vehicle: water) is on record?
Answer: 128 % of control

Question: What about the T/C (T/C endpoint: median survival time, dose: 3.0 mg/kg/injection, schedule: Q01DX009 (ip), vehicle: water) of the same compound?
Answer: 126 % of control (2×)

Question: And the T/C (T/C endpoint: median survival time, dose: 6.0 mg/kg/injection, schedule: Q01DX009 (ip), vehicle: water)?
Answer: 128 and 137 % of control

Question: And the T/C (T/C endpoint: median survival time, dose: 12.0 mg/kg/injection, schedule: Q01DX009 (ip), vehicle: water)?
Answer: 134 and 141 % of control

Question: And the survivor count (T/C endpoint: median survival time, dose: 24.0 mg/kg/injection, schedule: Q01DX009 (ip), vehicle: water)?
Answer: 4 of 6

Question: How did the survivor count (T/C endpoint: mean survival time, dose: 10.0 mg/kg/injection, schedule: Q04DX003 (ip), vehicle: saline with Tween-80) turn out when CN(C)CCC(=O)c1ccc([N+](=O)[O-])cc1 was run?
Answer: 3 of 6

Question: And the survivor count (T/C endpoint: mean survival time, dose: 20.0 mg/kg/injection, schedule: Q04DX003 (ip), vehicle: saline with Tween-80)?
Answer: 0 of 6

Question: CCCCC(C)C1(CCC)NC(C)(C)CC(C)O1 (stereo unspecified) was tested. Which survivor count [4] did it give?
Answer: 1 of 6

Question: With Cc1cc(C)c(C(Cl)(Cl)Cl)c(C)c1Cl as the compound, how does the survivor count [5] read?
Answer: 1 of 6

Question: And the survivor count [6]?
Answer: 3 of 6

Question: And the survivor count [4]?
Answer: 1 of 6

Question: Which survivor count (T/C endpoint: mean survival time, dose: 100.0 mg/kg/injection, schedule: Q01DX001 (ip), vehicle: saline) does the source give for Cc1cc(O)c2cc3c(O)c(O)ccc3cc2c1 here?
Answer: 0 of 6

Question: What about the survivor count (T/C endpoint: mean survival time, dose: 200.0 mg/kg/injection, schedule: Q01DX001 (ip), vehicle: saline) of the same compound?
Answer: 0 of 6

Question: What about the survivor count (T/C endpoint: mean survival time, dose: 400.0 mg/kg/injection, schedule: Q01DX001 (ip), vehicle: saline) of the same compound?
Answer: 0 of 6

Question: Which results are given for CC(=O)Nc1ccc(N=NN(C)Cc2ccccc2)cc1?
Answer: survivor count (T/C endpoint: mean survival time, dose: 100.0 mg/kg/injection, schedule: Q01DX001 (ip), vehicle: Klucel (hydroxypropylcellulose) (HPC)): 0 of 3; survivor count (T/C endpoint: mean survival time, dose: 200.0 mg/kg/injection, schedule: Q01DX001 (ip), vehicle: Klucel (hydroxypropylcellulose) (HPC)): 0 of 3; survivor count (T/C endpoint: mean survival time, dose: 400.0 mg/kg/injection, schedule: Q01DX001 (ip), vehicle: Klucel (hydroxypropylcellulose) (HPC)): 0 of 3

Question: With Nc1ccccc1-c1nc2ccncc2[nH]1 as the compound, how does the survivor count (T/C endpoint: mean survival time, dose: 300.0 mg/kg/injection, schedule: Q01DX001 (ip), vehicle: saline) read?
Answer: 0 of 6

Question: COc1ccc(OC)c(NC(=O)NNC(=O)CNC(=O)Nc2cccc(C)n2)c1 was tested. Which survivor count [5] did it give?
Answer: 6 of 6

Question: For C1=CC2OC1c1cc3ccccc3cc12, which survivor count (T/C endpoint: mean survival time, dose: 400.0 mg/kg/injection, schedule: Q04DX003 (ip), vehicle: other) is on record?
Answer: 2 of 6

Question: With CC[O+](CC)CC as the compound, how does the survivor count (T/C endpoint: mean survival time, dose: 100.0 mg/kg/injection, schedule: Q04DX002 (ip), vehicle: saline) read?
Answer: 1 of 3

Question: And the survivor count (T/C endpoint: mean survival time, dose: 200.0 mg/kg/injection, schedule: Q04DX002 (ip), vehicle: saline)?
Answer: 1 of 3

Question: And the survivor count [3]?
Answer: 0 of 3

Question: Which T/C (T/C endpoint: median survival time, dose: 0.78 mg/kg/injection, schedule: Q04DX003 (ip), vehicle: saline with Tween-80) does the source give for NC1CCCCC1N.O=C([O-])c1cc(S(=O)(=O)Nc2cc(S(=O)(=O)[O-])cc3cc(S(=O)(=O)[O-])cc(O)c23)ccc1[O-].[Pt+4] here?
Answer: 143 % of control

Question: And the survivor count (T/C endpoint: median survival time, dose: 12.5 mg/kg/injection, schedule: Q04DX003 (ip), vehicle: saline with Tween-80)?
Answer: 6 of 6

Question: And the survivor count (T/C endpoint: median survival time, dose: 25.0 mg/kg/injection, schedule: Q04DX003 (ip), vehicle: saline with Tween-80)?
Answer: 5 of 6

Question: What about the survivor count (T/C endpoint: median survival time, dose: 50.0 mg/kg/injection, schedule: Q04DX003 (ip), vehicle: saline with Tween-80) of the same compound?
Answer: 0 of 6

Question: And the survivor count (T/C endpoint: median survival time, dose: 100.0 mg/kg/injection, schedule: Q04DX003 (ip), vehicle: saline with Tween-80)?
Answer: 0 of 6

Question: What about the survivor count (T/C endpoint: median survival time, dose: 200.0 mg/kg/injection, schedule: Q04DX003 (ip), vehicle: saline with Tween-80) of the same compound?
Answer: 0 of 6

Question: O=C(CCl)Nc1ccc(-c2c(NC(=O)CCl)ncc3ccccc23)cc1 was tested. Which survivor count (T/C endpoint: mean survival time, dose: 300.0 mg/kg/injection, schedule: Q04DX003 (ip), vehicle: other) did it give?
Answer: 0 of 3

Question: For Cc1nc(C(=O)O)c(C)c(=O)[nH]1, which survivor count (T/C endpoint: mean survival time, dose: 400.0 mg/kg/injection, schedule: Q01DX005 (ip), vehicle: water) is on record?
Answer: 0 of 6

Question: Which survivor count (T/C endpoint: mean survival time, dose: 100.0 mg/kg/injection, schedule: Q01DX001 (ip), vehicle: saline with Tween-80) does the source give for Fc1ccc(NC2(c3nnnn3C3CCCCC3)CCNCC2)cc1 here?
Answer: 0 of 6

Question: And the survivor count [6]?
Answer: 0 of 6

Question: What about the survivor count [4] of the same compound?
Answer: 0 of 6

Question: What does the source list for O=S(=O)(OCCCCCOS(=O)(=O)c1cccnc1)c1cccnc1?
Answer: T/C (T/C endpoint: mean survival time, dose: 20.0 mg/kg/injection, schedule: Q04DX002 (ip), vehicle: saline with Tween-80): 130 % of control; survivor count (T/C endpoint: mean survival time, dose: 100.0 mg/kg/injection, schedule: Q04DX002 (ip), vehicle: saline with Tween-80): 0 of 3; survivor count (T/C endpoint: mean survival time, dose: 200.0 mg/kg/injection, schedule: Q04DX002 (ip), vehicle: saline with Tween-80): 0 of 3; survivor count (T/C endpoint: mean survival time, dose: 400.0 mg/kg/injection, schedule: Q04DX002 (ip), vehicle: saline with Tween-80): 0 of 3

Question: Which results are given for CC(=O)OCC#CCOC(C)=O?
Answer: survivor count [5]: 3 of 6; survivor count [7]: 0 of 6

Question: How did the T/C (T/C endpoint: mean survival time, dose: 200.0 mg/kg/injection, schedule: Q01DX009 (ip), vehicle: Klucel (hydroxypropylcellulose) (HPC)) turn out when O=C1CC2(C(=O)N1CN1CCCCC1)c1ccccc1-c1ccccc12 was run?
Answer: 131 % of control

Question: And the T/C (T/C endpoint: mean survival time, dose: 400.0 mg/kg/injection, schedule: Q01DX009 (ip), vehicle: Klucel (hydroxypropylcellulose) (HPC))?
Answer: 145 % of control [4 of 6 alive]

Question: For CCCOS(=O)(=O)c1ccc(Cl)c([N+](=O)[O-])c1, which survivor count [7] is on record?
Answer: 0 of 6

Question: What about the survivor count [8] of the same compound?
Answer: 3 of 6

Question: What does the source list for CCOC(=O)N1CC2CCC(C1)N2C?
Answer: survivor count [1]: 2 of 6; survivor count [2]: 0 of 6

Question: What does the source list for O=C1CC2CCCCN2C2=C1CCCC2 (stereo unspecified)?
Answer: survivor count (T/C endpoint: mean survival time, dose: 200.0 mg/kg/injection, schedule: Q04DX003 (ip), vehicle: acetone): 6 of 6; survivor count (T/C endpoint: mean survival time, dose: 400.0 mg/kg/injection, schedule: Q04DX003 (ip), vehicle: acetone): 0 of 6

Question: How did the survivor count (T/C endpoint: mean survival time, dose: 75.0 mg/kg/injection, schedule: Q01DX001 (ip), vehicle: other) turn out when CC(C)OP(=O)(OC(C)C)C1=C(P(=O)(OC(C)C)OC(C)C)C(F)(F)C(F)(F)C1(F)F was run?
Answer: 5 of 6

Question: And the survivor count (T/C endpoint: mean survival time, dose: 150.0 mg/kg/injection, schedule: Q01DX001 (ip), vehicle: other)?
Answer: 1 of 6

Question: And the survivor count (T/C endpoint: mean survival time, dose: 300.0 mg/kg/injection, schedule: Q01DX001 (ip), vehicle: other)?
Answer: 0 of 6

Question: With CC1NC(C)SC(C)S1 (stereo unspecified) as the compound, how does the survivor count [8] read?
Answer: 2 of 6

Question: How did the survivor count [8] turn out when Cc1ccccc1CC(C)c1ccccc1 (stereo unspecified) was run?
Answer: 4 of 6

Question: CCOc1ccc(C(C)c2cc3c(cc2OC)OCO3)cc1 (stereo unspecified) was tested. Which survivor count (T/C endpoint: median survival time, dose: 400.0 mg/kg/injection, schedule: Q01DX009 (ip), vehicle: distilled water + Tween-80) did it give?
Answer: 3 of 6

Question: And the survivor count (T/C endpoint: median survival time, dose: 400.0 mg/kg/injection, schedule: Q01DX009 (ip), vehicle: saline with Tween-80)?
Answer: 4 of 6
